Reference: the supplement of paper PMC12819154, “High-throughput peptide-centric local stability assay extends protein–ligand identification to membrane proteins, tissues and bacteria” (Nature Structural & Molecular Biology, 2025)
The other results are listed elsewhere or left out. Most values lie at the level of the controls, where differences are scatter.

Sequences of proteins named here, by UniProt entry; tags and fusion partners are left off. A change or cut given only in a name is not applied to a line headed by its entry.
UniProt Q08623: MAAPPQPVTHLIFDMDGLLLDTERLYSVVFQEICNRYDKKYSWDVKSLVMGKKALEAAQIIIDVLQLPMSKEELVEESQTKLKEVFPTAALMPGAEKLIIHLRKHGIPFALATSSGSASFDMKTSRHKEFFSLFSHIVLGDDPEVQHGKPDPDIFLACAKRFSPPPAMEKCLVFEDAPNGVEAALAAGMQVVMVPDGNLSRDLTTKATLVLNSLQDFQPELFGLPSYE
UniProt Q13099: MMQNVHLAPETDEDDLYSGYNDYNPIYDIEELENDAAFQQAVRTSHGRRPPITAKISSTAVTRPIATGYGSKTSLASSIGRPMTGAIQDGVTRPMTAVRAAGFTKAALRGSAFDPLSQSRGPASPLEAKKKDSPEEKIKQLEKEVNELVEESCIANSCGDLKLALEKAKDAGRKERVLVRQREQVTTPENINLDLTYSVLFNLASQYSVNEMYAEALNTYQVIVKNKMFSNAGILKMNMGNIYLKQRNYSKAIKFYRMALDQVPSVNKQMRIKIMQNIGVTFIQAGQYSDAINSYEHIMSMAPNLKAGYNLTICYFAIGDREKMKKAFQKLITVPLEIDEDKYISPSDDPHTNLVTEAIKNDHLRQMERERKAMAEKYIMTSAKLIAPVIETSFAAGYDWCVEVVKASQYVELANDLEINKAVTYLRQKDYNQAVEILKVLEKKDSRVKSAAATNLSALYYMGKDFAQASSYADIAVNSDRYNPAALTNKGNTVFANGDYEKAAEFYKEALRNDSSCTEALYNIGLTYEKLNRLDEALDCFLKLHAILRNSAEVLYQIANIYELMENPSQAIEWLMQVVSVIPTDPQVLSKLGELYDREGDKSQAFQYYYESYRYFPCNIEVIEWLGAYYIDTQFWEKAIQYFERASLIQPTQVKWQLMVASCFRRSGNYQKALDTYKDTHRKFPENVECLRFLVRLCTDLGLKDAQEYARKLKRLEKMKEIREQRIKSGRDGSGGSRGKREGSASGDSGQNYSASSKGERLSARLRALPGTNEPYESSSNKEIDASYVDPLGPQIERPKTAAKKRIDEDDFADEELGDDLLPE
UniProt Q06413, whole entry: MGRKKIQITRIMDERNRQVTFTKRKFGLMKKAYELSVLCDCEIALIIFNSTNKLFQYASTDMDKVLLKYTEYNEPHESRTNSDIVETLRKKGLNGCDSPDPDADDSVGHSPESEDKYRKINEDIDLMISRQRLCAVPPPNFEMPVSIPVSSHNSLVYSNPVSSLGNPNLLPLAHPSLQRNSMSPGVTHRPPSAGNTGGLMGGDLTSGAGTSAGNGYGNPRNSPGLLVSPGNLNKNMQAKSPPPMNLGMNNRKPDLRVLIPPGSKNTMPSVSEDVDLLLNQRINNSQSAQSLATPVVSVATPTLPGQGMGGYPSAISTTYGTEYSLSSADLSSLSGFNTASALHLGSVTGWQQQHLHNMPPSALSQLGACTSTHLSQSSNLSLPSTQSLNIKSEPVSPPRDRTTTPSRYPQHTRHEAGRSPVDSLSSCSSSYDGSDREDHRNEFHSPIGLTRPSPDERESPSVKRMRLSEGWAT
UniProt Q13094: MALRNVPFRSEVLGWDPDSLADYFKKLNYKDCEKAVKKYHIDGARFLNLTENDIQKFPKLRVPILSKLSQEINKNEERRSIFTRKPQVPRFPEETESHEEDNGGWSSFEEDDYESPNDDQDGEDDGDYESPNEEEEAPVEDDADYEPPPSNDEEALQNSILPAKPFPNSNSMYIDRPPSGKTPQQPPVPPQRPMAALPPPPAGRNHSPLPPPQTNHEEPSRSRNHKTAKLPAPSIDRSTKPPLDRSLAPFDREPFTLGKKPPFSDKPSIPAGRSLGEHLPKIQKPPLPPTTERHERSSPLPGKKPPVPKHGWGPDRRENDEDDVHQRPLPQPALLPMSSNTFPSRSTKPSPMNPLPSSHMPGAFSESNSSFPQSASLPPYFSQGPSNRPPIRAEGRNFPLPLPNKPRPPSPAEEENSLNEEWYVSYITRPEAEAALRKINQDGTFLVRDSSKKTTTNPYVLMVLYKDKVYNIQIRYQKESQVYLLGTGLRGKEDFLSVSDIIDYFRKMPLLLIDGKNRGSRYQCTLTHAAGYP
UniProt Q01130: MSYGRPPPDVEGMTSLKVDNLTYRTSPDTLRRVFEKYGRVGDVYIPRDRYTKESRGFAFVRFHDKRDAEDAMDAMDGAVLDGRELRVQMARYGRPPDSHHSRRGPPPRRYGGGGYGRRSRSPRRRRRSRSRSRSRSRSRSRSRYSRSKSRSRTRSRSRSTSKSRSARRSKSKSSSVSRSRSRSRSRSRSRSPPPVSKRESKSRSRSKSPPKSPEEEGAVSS
UniProt Q0VG06: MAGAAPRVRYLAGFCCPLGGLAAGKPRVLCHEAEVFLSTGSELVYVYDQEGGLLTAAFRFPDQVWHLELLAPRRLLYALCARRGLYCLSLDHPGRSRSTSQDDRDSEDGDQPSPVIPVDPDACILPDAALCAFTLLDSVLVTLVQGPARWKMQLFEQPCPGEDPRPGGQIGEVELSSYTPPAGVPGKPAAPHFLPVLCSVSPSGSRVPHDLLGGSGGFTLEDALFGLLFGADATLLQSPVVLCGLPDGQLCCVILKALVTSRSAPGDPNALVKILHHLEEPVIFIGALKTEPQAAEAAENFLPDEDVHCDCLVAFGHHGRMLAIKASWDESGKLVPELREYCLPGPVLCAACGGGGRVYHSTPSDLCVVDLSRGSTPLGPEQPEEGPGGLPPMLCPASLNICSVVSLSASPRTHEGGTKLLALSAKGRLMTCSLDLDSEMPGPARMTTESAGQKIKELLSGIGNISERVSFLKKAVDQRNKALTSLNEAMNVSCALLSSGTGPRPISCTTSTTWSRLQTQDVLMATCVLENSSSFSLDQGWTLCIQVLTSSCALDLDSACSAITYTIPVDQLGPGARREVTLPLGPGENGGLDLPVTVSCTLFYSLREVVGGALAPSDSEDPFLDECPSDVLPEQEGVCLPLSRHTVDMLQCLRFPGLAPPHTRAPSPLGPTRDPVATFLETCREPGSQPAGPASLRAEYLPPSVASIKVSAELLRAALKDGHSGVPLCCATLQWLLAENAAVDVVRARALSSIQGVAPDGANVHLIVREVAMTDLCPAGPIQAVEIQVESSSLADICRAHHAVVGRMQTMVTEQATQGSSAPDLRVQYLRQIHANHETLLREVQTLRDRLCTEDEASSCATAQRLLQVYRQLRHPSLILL
UniProt Q00688: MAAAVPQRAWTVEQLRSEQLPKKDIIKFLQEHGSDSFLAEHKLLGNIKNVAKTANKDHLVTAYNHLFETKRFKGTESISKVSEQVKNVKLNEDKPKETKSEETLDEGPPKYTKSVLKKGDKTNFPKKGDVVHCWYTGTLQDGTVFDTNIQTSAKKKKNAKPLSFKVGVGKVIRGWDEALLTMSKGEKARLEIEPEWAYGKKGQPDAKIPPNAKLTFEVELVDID
UniProt Q00610: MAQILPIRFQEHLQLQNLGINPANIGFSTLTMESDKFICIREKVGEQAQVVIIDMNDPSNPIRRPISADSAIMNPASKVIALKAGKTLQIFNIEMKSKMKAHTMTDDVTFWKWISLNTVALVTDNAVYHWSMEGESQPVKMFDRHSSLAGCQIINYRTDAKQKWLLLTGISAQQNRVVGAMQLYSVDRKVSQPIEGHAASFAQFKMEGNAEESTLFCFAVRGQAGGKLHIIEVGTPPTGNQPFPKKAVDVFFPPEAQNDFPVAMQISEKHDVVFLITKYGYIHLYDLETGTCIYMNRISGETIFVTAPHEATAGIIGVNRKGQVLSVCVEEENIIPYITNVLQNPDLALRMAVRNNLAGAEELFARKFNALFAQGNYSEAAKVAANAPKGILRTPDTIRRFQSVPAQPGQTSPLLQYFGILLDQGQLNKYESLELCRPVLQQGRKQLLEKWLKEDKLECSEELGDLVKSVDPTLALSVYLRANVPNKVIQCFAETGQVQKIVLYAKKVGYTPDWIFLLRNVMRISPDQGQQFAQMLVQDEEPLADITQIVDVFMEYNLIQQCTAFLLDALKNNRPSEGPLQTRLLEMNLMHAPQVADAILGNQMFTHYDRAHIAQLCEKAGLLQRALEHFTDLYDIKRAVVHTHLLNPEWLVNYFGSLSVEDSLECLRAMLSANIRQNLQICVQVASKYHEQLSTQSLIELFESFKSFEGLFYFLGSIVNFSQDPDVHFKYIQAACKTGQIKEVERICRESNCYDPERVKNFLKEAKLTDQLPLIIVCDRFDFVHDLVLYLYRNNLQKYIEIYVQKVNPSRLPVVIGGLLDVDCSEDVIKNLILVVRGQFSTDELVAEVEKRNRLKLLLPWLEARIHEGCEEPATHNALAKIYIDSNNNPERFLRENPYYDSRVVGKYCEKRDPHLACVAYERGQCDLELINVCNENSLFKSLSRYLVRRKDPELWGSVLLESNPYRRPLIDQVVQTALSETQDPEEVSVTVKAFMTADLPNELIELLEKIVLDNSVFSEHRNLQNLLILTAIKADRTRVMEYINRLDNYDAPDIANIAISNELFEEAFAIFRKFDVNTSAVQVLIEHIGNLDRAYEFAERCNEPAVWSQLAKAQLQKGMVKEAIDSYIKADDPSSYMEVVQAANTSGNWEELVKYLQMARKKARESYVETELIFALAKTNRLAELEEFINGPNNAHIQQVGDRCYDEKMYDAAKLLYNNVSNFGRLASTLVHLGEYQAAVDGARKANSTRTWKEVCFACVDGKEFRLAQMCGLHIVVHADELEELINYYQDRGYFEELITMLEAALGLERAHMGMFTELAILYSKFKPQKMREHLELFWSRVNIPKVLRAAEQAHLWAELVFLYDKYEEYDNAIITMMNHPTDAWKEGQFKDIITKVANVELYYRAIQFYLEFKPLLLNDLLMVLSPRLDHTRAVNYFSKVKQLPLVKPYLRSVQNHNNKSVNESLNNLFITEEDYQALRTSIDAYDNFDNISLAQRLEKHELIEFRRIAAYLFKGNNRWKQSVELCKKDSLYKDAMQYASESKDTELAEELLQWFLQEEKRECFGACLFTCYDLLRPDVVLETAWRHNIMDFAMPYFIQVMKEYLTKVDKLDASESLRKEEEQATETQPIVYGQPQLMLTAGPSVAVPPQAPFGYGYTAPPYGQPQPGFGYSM
UniProt Q02410: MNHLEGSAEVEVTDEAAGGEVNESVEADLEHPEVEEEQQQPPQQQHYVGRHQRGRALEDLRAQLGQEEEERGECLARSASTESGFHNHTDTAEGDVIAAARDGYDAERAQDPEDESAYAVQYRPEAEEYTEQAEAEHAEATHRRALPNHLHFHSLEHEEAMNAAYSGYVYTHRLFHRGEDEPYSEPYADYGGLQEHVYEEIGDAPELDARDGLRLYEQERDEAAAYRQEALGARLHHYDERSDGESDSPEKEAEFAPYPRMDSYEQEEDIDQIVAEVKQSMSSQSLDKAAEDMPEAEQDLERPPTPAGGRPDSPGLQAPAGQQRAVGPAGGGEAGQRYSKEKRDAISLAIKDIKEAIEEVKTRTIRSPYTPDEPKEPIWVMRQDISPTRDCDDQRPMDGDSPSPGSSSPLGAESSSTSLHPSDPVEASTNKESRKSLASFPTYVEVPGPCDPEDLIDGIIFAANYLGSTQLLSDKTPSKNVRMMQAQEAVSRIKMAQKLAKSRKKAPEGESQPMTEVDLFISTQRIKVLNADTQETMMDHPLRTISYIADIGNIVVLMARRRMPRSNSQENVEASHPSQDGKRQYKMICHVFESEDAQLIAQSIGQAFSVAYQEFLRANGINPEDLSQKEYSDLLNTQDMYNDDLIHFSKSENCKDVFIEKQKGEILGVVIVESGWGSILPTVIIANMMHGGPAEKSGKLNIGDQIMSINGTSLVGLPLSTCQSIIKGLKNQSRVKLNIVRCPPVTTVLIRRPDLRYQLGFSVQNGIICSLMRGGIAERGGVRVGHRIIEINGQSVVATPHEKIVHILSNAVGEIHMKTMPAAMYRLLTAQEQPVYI
UniProt Q0VDD7: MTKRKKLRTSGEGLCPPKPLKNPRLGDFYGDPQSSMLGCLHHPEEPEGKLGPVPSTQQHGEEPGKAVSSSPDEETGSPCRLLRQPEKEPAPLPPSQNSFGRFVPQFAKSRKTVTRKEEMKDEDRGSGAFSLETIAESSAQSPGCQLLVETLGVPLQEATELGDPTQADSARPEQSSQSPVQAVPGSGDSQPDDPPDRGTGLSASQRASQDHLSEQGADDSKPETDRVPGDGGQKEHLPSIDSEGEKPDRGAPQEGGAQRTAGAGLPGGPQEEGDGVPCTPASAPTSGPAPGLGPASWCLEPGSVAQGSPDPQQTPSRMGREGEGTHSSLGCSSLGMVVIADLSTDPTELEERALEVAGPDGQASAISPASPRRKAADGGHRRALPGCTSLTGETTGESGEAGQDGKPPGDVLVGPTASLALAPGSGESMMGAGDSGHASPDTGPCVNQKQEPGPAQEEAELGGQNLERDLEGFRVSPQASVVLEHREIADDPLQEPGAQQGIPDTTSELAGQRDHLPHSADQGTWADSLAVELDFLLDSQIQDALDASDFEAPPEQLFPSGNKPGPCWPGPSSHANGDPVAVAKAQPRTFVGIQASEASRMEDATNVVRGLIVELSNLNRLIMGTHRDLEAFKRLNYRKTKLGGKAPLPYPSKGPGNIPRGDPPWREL

compound: CN[C@@H]1C[C@H]2O[C@@](C)([C@@H]1OC)n1c3ccccc3c3c4c(c5c6ccccc6n2c5c31)C(=O)NC4 [staurosporine]; experiment: log2 fold change of tryptic peptide abundance, ligand vs vehicle (limited proteolysis) (log2 ratio); higher = more trypsin-susceptible (destabilized); settings: ligand concentration: 20 uM; sample: K562 cleared lysate; digestion: 4 min, 22 C (HT-PELSA RT4min, Orbitrap Astral)

Target	log2 fold change
ZNF816 (peptide sequence: SMMEFSSTR, peptide start residue: 69) (UniProt Q0VGE8)	0.295
ZBED6 (peptide sequence: GKPGSHLGTSTLQR, peptide start residue: 161) (UniProt P86452)	0.289
RBM3 (peptide sequence: YYDSRPGGYGYGYGR, peptide start residue: 117) (UniProt P98179)	-0.0931
XPC (peptide sequence: GCSHPGGSADGPAKK, peptide start residue: 59) (UniProt Q01831)	0.718
UniProt Q05519 (peptide sequence: EIEEAMK, peptide start residue: 218)	-0.389
HSF2 (peptide sequence: QGQDDLLENIK, peptide start residue: 98) (UniProt Q03933)	-0.321
UniProt Q08623 (peptide sequence: EELVEESQTK, peptide start residue: 72)	0.0278
GPS1 (peptide sequence: LQFIADHCPTLR, peptide start residue: 60) (UniProt Q13098)	0.464
GFPT1 (peptide sequence: GYDVDFPR, peptide start residue: 683) (UniProt Q06210)	-0.232
IFT88 (peptide sequence: GNTVFANGDYEK, peptide start residue: 491) (UniProt Q13099)	0.417
DMTN (peptide sequence: TSLPHFHHPETSRPDSNIYK, peptide start residue: 123) (UniProt Q08495)	-0.4
TLE4 (peptide sequence: SSSVSPSASFR, peptide start residue: 204) (UniProt Q04727)	-0.243
MEF2C (peptide sequence: TNSDIVETLRK, peptide start residue: 80) (UniProt Q06413)	0.559
UniProt Q03188 (peptide sequence: AASGLDHLK, peptide start residue: 2)	0.17
YWHAH (peptide sequence: YDDMASAMK, peptide start residue: 20) (UniProt Q04917)	0.104
TOP2B (peptide sequence: KTSKTTSK, peptide start residue: 1563) (UniProt Q02880)	0.227
UniProt Q12872 (peptide sequence: LEELMKPLK, peptide start residue: 310)	0.412
RUNX1 (peptide sequence: LSELEQLR, peptide start residue: 198) (UniProt Q01196)	0.661
XIAP (peptide sequence: NPAMYSEEAR, peptide start residue: 157) (UniProt P98170)	0.525
PTPN11 (peptide sequence: FIYMAVQHYIETLQR, peptide start residue: 513) (UniProt Q06124)	0.396

Looked up above:
log2 fold change with UniProt Q03188 (peptide sequence: AASGLDHLK, peptide start residue: 2) reads 0.17
log2 fold change with UniProt Q08623 (peptide sequence: EELVEESQTK, peptide start residue: 72) reads 0.0278

Next records:

Target	log2 fold change
DST (peptide sequence: FILADGASQGMAAFRPR, peptide start residue: 7388) (UniProt Q03001)	0.171
UniProt Q08043 (peptide sequence: KAGTQIENIEEDFR, peptide start residue: 47)	0.453
UniProt Q03112 (peptide sequence: GSSESPFDLTTK, peptide start residue: 736)	0.365
LCP2 (peptide sequence: LSQEINKNEER, peptide start residue: 68) (UniProt Q13094)	-0.447
UniProt Q12798 (peptide sequence: LFDDDETGKISFK, peptide start residue: 112)	-0.3
NFKB2 (peptide sequence: QCSELGICAVSVGPK, peptide start residue: 113) (UniProt Q00653)	-0.743
UniProt Q01130 (peptide sequence: YGRPPDSHHSRR, peptide start residue: 92)	0.617
GTF2B (peptide sequence: VIDVGSEWR, peptide start residue: 45) (UniProt Q00403)	-0.18
SOS1 (peptide sequence: FYSQQMK, peptide start residue: 407) (UniProt Q07889)	-0.31
UniProt Q0VG06 (peptide sequence: VYHSTPSDLCVVDLSR, peptide start residue: 358)	0.156
FKBP3 (peptide sequence: FLQEHGSDSFLAEHK, peptide start residue: 28) (UniProt Q00688)	-0.117
DMWD (peptide sequence: AEEAATAAGADGER, peptide start residue: 383) (UniProt Q09019)	-0.524
NCBP1 (peptide sequence: IQKELEEAK, peptide start residue: 655) (UniProt Q09161)	0.459
CLTC (peptide sequence: VSQPIEGHAASFAQFK, peptide start residue: 190) (UniProt Q00610)	-0.573
APBA1 (peptide sequence: MMQAQEAVSR, peptide start residue: 394) (UniProt Q02410)	0.166
AMPD3 (peptide sequence: FSLHEMLNEMSEFK, peptide start residue: 285) (UniProt Q01432)	0.526
TRAF2 (peptide sequence: HLEHECPER, peptide start residue: 151) (UniProt Q12933)	0.203
SPIRE1 (peptide sequence: ALDYGLKENEER, peptide start residue: 136) (UniProt Q08AE8)	-0.219
C19orf57 (peptide sequence: VSPQASVVLEHR, peptide start residue: 475) (UniProt Q0VDD7)	0.254
TRAP1 (peptide sequence: FFIDQSK, peptide start residue: 425) (UniProt Q12931)	0.304
